The list shows a part of the results. Most values lie at the level of the controls, where differences are scatter.

Chains of the proteins cited; added tags and fusions are not shown. Lines headed by an entry give the natural chain unless they say otherwise; changes in a name come on top.
UniProt P55012: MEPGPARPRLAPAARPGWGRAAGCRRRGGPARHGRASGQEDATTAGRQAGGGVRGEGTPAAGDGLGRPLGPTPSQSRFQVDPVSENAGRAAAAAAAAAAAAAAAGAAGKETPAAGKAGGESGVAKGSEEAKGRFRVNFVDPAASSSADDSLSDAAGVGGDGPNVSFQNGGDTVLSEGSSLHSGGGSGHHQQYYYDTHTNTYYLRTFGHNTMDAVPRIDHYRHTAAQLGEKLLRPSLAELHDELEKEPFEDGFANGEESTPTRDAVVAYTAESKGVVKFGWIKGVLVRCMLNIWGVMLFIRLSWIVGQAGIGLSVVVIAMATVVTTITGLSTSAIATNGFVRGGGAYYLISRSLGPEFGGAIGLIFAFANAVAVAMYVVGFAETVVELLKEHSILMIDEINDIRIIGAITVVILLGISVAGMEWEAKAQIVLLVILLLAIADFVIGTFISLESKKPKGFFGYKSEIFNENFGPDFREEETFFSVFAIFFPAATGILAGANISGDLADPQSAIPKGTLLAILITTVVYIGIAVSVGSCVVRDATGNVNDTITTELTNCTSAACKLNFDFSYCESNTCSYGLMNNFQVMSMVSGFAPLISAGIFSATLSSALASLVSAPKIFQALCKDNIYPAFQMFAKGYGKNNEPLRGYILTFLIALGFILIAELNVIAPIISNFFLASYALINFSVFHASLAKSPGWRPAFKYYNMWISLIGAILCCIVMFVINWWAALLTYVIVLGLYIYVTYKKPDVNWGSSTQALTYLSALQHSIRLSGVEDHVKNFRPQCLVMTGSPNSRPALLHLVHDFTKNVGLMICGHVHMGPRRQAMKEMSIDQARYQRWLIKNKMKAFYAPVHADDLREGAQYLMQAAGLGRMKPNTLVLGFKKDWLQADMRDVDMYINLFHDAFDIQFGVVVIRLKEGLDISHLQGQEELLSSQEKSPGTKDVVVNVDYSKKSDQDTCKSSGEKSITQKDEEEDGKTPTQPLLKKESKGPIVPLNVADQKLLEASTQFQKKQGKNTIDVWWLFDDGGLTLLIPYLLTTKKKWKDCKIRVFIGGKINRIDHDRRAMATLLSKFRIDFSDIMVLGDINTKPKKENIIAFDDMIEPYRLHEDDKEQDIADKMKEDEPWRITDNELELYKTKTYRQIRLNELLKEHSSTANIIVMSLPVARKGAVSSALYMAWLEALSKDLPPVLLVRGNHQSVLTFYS
UniProt P63028: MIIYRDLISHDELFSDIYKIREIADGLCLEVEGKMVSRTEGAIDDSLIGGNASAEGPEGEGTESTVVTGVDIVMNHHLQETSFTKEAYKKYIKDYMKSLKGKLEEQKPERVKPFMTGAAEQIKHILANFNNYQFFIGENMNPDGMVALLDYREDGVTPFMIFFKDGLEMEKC
UniProt P60824: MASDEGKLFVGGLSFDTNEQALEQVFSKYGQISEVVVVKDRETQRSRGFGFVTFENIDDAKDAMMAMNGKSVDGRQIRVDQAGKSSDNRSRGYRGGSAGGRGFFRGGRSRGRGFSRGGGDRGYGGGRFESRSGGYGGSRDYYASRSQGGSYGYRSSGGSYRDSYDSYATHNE
UniProt P54310: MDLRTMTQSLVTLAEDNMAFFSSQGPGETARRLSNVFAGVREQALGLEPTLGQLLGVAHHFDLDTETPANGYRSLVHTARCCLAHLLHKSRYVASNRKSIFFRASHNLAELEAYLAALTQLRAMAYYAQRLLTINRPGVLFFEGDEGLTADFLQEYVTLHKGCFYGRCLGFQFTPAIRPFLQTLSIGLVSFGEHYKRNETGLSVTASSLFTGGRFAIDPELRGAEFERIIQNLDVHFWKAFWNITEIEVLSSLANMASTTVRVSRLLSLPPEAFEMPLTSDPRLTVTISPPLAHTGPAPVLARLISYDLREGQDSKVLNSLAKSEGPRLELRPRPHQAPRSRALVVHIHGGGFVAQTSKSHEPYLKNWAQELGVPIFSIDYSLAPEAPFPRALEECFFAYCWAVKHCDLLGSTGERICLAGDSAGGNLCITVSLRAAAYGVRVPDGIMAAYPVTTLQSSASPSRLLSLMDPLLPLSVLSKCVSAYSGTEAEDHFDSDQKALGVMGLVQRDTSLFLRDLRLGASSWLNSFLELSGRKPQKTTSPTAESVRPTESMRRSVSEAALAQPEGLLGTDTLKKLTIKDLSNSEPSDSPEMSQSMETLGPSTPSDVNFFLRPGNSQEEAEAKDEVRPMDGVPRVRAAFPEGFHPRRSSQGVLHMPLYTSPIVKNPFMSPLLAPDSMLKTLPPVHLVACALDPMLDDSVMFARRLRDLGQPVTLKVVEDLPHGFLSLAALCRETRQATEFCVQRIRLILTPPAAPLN
UniProt P58871: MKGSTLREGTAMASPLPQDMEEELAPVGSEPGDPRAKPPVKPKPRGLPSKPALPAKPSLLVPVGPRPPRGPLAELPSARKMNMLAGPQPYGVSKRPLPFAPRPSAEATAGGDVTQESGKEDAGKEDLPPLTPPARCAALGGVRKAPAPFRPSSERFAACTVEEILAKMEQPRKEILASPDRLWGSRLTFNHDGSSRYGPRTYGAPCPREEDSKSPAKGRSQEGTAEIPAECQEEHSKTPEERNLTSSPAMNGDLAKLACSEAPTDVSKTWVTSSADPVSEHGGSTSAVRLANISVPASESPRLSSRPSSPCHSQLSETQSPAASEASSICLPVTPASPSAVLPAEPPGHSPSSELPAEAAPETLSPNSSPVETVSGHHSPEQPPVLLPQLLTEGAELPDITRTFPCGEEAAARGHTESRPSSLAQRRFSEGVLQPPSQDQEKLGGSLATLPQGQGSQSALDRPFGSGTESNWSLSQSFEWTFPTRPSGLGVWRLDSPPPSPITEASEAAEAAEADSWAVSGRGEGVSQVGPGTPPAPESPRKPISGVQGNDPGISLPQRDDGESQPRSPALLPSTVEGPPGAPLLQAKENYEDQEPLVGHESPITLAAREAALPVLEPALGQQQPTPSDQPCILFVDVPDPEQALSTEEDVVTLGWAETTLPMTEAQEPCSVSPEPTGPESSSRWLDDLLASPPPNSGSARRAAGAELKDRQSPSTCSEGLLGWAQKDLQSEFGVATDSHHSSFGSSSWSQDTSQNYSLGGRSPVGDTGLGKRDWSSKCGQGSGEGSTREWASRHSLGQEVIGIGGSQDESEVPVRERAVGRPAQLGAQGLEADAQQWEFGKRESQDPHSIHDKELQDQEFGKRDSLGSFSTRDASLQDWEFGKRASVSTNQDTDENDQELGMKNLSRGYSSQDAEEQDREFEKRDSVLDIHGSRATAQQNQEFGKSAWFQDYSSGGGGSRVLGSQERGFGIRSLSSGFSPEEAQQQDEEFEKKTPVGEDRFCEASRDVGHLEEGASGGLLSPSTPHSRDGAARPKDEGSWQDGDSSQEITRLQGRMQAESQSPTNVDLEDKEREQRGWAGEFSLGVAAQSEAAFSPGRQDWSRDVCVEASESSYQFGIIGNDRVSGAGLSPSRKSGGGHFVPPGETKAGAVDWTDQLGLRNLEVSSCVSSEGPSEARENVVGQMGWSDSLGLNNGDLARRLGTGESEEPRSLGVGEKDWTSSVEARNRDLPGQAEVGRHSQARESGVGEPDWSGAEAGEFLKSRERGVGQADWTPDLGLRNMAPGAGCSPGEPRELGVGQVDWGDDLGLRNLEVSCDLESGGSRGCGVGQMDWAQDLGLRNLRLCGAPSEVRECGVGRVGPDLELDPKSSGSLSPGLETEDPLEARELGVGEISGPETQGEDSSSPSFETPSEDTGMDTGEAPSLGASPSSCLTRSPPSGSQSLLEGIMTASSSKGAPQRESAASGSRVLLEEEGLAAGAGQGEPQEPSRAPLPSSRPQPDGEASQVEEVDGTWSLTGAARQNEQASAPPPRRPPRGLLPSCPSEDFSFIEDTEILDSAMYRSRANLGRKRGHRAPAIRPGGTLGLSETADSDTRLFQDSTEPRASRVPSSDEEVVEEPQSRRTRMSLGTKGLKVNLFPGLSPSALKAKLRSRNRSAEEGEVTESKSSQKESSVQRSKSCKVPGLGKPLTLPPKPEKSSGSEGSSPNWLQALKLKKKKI
UniProt P59017, whole entry: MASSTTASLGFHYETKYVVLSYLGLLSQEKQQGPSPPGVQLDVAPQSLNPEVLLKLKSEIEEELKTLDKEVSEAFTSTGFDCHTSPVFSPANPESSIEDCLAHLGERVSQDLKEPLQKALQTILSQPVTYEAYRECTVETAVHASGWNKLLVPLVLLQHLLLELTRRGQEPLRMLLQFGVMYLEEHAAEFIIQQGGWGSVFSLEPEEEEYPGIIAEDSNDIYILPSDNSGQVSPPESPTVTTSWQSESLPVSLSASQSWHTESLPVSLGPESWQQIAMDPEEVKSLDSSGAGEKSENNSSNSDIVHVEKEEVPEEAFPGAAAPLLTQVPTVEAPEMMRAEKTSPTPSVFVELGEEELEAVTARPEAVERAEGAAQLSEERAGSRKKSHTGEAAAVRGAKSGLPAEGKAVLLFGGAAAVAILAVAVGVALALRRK
UniProt P61028: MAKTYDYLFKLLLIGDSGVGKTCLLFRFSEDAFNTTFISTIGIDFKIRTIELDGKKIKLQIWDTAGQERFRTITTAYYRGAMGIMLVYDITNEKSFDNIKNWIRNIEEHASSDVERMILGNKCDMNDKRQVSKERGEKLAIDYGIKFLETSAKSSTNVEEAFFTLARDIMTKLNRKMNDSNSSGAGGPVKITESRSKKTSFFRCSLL
UniProt P55292: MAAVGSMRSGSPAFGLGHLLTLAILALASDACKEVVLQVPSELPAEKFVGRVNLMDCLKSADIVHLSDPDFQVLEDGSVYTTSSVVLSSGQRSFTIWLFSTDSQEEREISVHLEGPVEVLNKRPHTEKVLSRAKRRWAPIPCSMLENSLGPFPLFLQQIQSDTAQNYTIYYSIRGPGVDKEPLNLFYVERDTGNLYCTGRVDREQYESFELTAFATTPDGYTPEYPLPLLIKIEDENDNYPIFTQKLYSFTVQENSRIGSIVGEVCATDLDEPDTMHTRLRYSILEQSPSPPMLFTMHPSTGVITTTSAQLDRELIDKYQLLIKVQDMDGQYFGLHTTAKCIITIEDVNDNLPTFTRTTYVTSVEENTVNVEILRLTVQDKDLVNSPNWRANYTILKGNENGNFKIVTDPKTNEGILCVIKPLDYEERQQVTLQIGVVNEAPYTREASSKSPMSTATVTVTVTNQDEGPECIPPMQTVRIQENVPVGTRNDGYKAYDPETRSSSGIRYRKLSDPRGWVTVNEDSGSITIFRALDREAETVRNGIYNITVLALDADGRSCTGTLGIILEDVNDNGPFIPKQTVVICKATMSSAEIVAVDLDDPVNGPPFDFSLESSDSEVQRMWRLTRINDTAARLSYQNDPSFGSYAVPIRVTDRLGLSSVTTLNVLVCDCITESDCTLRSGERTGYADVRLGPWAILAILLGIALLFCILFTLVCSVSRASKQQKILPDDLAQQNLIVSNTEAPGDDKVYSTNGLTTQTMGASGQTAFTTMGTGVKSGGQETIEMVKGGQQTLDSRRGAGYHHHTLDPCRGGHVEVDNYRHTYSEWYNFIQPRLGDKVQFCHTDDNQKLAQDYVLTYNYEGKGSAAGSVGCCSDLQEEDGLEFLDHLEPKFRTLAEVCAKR
UniProt P63040: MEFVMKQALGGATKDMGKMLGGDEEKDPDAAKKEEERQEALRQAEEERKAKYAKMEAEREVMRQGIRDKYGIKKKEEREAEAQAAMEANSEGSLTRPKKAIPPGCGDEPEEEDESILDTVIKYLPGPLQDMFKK
UniProt P59110: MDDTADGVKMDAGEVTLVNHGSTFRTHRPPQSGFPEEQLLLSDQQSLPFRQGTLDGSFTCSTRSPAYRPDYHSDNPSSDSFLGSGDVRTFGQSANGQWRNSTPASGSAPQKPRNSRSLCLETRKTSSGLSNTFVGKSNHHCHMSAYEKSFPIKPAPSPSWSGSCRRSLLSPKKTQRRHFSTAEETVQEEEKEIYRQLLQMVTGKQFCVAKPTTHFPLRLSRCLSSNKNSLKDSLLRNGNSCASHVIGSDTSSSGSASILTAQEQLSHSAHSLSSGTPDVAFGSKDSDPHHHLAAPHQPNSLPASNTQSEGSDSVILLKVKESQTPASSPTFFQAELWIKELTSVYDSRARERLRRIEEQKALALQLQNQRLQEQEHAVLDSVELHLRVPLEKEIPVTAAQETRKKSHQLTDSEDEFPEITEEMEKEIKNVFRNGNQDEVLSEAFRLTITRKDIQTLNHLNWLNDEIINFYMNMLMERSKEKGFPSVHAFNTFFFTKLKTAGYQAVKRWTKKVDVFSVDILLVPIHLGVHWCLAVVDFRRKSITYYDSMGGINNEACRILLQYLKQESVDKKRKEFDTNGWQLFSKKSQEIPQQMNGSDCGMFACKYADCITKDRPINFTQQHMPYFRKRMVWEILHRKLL
UniProt P57784: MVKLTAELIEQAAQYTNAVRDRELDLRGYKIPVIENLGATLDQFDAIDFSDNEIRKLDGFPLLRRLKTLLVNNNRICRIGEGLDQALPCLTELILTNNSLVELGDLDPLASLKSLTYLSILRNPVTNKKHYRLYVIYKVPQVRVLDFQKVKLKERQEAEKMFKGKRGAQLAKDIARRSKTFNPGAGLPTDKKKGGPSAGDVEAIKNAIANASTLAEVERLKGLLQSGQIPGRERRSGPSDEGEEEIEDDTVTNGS

Compound in this assay: CN[C@@H]1C[C@H]2O[C@@](C)([C@@H]1OC)n1c3ccccc3c3c4c(c5c6ccccc6n2c5c31)C(=O)NC4 [staurosporine]
Description: log2 fold change of tryptic peptide abundance, ligand vs vehicle (limited proteolysis) (log2 ratio); higher = more trypsin-susceptible (destabilized). The note with it: ligand concentration: 20 uM; sample: mouse liver crude lysate; replicate design: treated separately.
With “UniProt P55012 (peptide sequence: DAVVAYTAESK, peptide start residue: 263)”, the log2 fold change was -0.242. Take “UniProt P61213 (peptide sequence: TVTFHFWDVGGQEK, peptide start residue: 68)”: the log2 fold change was -0.208. Then “UniProt P59729 (peptide sequence: SYLLQSTELK, peptide start residue: 650)”, with -0.353; and “UniProt P63028 (peptide sequence: LEEQKPER, peptide start residue: 103)”, with -0.927; and “UniProt P60840 (peptide sequence: EGILPEKAEEAK, peptide start residue: 25)”, with 0.096. As for “UniProt P56974 (peptide sequence: HSRGPPTRAK, peptide start residue: 741)”, the log2 fold change was 0.0921.

Regarding “UniProt P60824 (peptide sequence: DAMMAMNGK, peptide start residue: 62)”, the log2 fold change came out at 0.165.

In the case of “UniProt P59438 (peptide sequence: SPSPLVSLQAVK, peptide start residue: 532)”, the log2 fold change is -0.0712. The result for “UniProt P56213 (peptide sequence: SEMTDDLVTDAR, peptide start residue: 25)” reads 0.0368. With “UniProt P54310 (peptide sequence: QATEFCVQR, peptide start residue: 738)”, the log2 fold change was -0.382.

Take “UniProt P57759 (peptide sequence: WASQYLK, peptide start residue: 200)”: the log2 fold change came out at 0.109. Take “UniProt P56960 (peptide sequence: SGPLPSAER, peptide start residue: 593)”: the log2 fold change was 0.287.

For “UniProt P56654 (peptide sequence: ATNGMGLAFSK, peptide start residue: 106)”, the log2 fold change is -0.214. Regarding “UniProt P56380 (peptide sequence: LSQEHQAYR, peptide start residue: 107)”, the log2 fold change was -0.496. For the target “UniProt P56812 (peptide sequence: LSNLALVKPEK, peptide start residue: 56)”, the log2 fold change amounted to 0.225. Then “UniProt P54103 (peptide sequence: AFDKFKK, peptide start residue: 521)”, with -0.401; and “UniProt P59759 (peptide sequence: TKDPPRYEEAIK, peptide start residue: 860)”, with -0.099. Turning to “UniProt P58871 (peptide sequence: HSLGQEVIGIGGSQDESEVPVRER, peptide start residue: 795)”, the log2 fold change was -0.26. “UniProt P59017 (peptide sequence: SEIEEELK, peptide start residue: 58)”: the log2 fold change was -0.341. The result for “UniProt P62748 (peptide sequence: LSLEEFIK, peptide start residue: 164)” reads -0.18; that for “UniProt P58774 (peptide sequence: LVILEGELER, peptide start residue: 169)”, 0.223.

Turning to “UniProt P60469 (peptide sequence: EIGISNPLHR, peptide start residue: 942)”, the log2 fold change is 0.142. “UniProt P61028 (peptide sequence: MNDSNSSGAGGPVKITESR, peptide start residue: 177)”: the log2 fold change was -0.137. Then “UniProt P59222 (peptide sequence: TPIQKPPR, peptide start residue: 806)”, with -0.278.

With “UniProt P62983 (peptide sequence: YYKVDENGK, peptide start residue: 105)”, the log2 fold change was determined as 0.0768. Turning to “UniProt P63094 (peptide sequence: RVFNDCR, peptide start residue: 374)”, the log2 fold change was -0.159. For the target “UniProt P59326 (peptide sequence: LENNDNKPVTNSR, peptide start residue: 521)”, the log2 fold change is -0.325. Take “UniProt P54071 (peptide sequence: GKLDGNQDLIR, peptide start residue: 383)”: the log2 fold change was 0.178. The result for “UniProt P55292 (peptide sequence: GNENGNFK, peptide start residue: 398)” reads 0.589; that for “UniProt P63040 (peptide sequence: YLPGPLQDMFKK, peptide start residue: 123)”, -0.293; that for “UniProt P58686 (peptide sequence: LQELLESNR, peptide start residue: 56)”, 0.201. Consider “UniProt P55200 (peptide sequence: TPCLSAPSSSTVK, peptide start residue: 985)”, for which the log2 fold change was 0.65. The result for “UniProt P54731 (peptide sequence: HFGSVIAQTIR, peptide start residue: 430)” reads -0.29; that for “UniProt P59110 (peptide sequence: MDAGEVTLVNHGSTFR, peptide start residue: 10)”, -0.495.

With “UniProt P57784 (peptide sequence: GGPSAGDVEAIK, peptide start residue: 194)”, the log2 fold change was determined as 0.0935. Then “UniProt P58771 (peptide sequence: CAELEEELKTVTNNLK, peptide start residue: 190)”, with -0.119.

The record behind these values is the supplement of paper PMC12819154, “High-throughput peptide-centric local stability assay extends protein–ligand identification to membrane proteins, tissues and bacteria” (Nature Structural & Molecular Biology, 2025).
